Laboratory results published in patent US20230390324A1, “TREATMENT OF FATTY LIVER DISEASES” (TX MEDIC AB, priority 2020, published 2023).

System: 12 BioMAP® Diversity Plus human cell systems
Experiment: BioMAP Diversity PLUS phenotypic profiling in 12 primary human cell and co-culture systems
Format: cell-based
Conditions: benchmarked against Pirfenidone; FIG. 4
Method: Twelve primary human cell and co-cultures assays were used to assess the effects of dextran sulfate on clinically-relevant protein biomarkers of inflammation, cell growth and fibrosis as part of the quality controlled BioMAP® Diversity PLUS, commercially available service (Eurofins DiscoverX Corporation, Freemont, CA, USA; for full details https://www.discoverx.com). Dextran sulfate was tested in these assays at four concentrations: 4000 nMw 1300 nMw 400 nM and 150 nM. Human primary cells employed in the BioMAP® systems were used at passage 4 or earlier, derived from multiple donors (n=2 to 6), commercially purchased and handled according to the recommendations of the manufacturers. Human blood derived CD14+ monocytes were differentiated into macrophages in vitro before being added to the IMphg system (Eurofins DiscoverX Corporation). […]
Assays were derived from either single cell types or co-culture systems. […] Test agents prepared in either DMSO (small molecules; final concentration 0.1%) or PBS (biologics) were added at the indicated concentrations 1 h before stimulation, and cells remained in culture for 24 h or as otherwise indicated (48 h, MyoF system; 72 h, BT system (soluble readouts); 168 h, BT system (secreted IgG)). […] Soluble factors from supernatants were quantified using either HTRF® detection, bead-based multiplex immunoassay or capture ELISA. […]

**Q.** For Dextran sulfate, which “common activities with Pirfenidone (number)” value is on record?
**A.** 5

**Q.** What about the “differential activities versus Pirfenidone outside the normal range (number)” value of the same substance?
**A.** 34
